According to patent US20250382631A1, “PROTAC-CID SYSTEMS FOR USE IN MULTIPLEX GENE REGULATION” (William Marsh Rice University, priority 2022, published 2025):
Some entries share one result that the patent states for a list of compounds. At least one compound was matched to its structure with a doubt left.

Tested on: pUAS-1-driven EYFP expression in HEK293T cells transfected with GAL4- and VPR-fused PROTAC target protein / E3 ubiquitin ligase
Test: PROTAC-CID inducible EYFP gene activation, flow cytometry
Assay type: cell-based, human
Conditions: full-length target proteins, 2 days of induction, vs DMSO; concentrations per Table 5 (dTRIM24 5 μM, dTAG-13 100 nM, MZ1 100 nM), FIG. 1B
Description: Fluorescence assay using flow cytometry analysis. Cells were treated with 0.05% Trpsin EDTA (Thermo Fisher Scientific no. 25300054) or TrypLE (Thermo Fisher Scientific no. 12605028) after transfection and centrifuged at 3000 g for 5 min. Supernatant was removed and the cell pellet was resuspended with 200 μL phosphate buffered saline (PBS) without calcium and magnesium (Thermo Fisher Scientific no. 10010023). Cells were transferred into 12×75 mm flow tubes (Global Scientific no. 110410). Cells were analyzed by MA900 flow cytometry (SONY). 405 nm laser (FL6 filter) was used for testing the BFP channel. 488 nm (FL1 filter) was used for testing the EYFP and GFP channel. […] Flow cytometry data was processed and analyzed by FlowJo 10. […] The mean intensity of the reporter fluorescent protein (BFP and EYFP) in viable and single cell populations were calculated by FlowJo 10 as the mean of FL6-A and FL1-A. When calculating the fold change of relative fluorescence units (RFU), the relative fluorescence units of EYFP was calculated by dividing the mean of fluorescence intensity of EYFP with the mean of BFP fluorescence intensity for normalization as the following formula: […]
Next, the mean of the normalized relative fluorescence units of induced group were divided by the value of control group for calculating the fold change as the following formula: […]

With Cc1ncsc1-c1ccc(CNC(=O)[C@@H]2C[C@@H](O)CN2C(=O)[C@@H](NC(=O)COCCOCCOCCNC(=O)C[C@@H]2N=C(c3ccc(Cl)cc3)c3c(sc(C)c3C)-n3c(C)nnc32)C(C)(C)C)cc1 [MZ1] the “increase in EYFP expression” value was over 100 fold.

For CCCOc1cccc(Oc2cc3c(cc2NS(=O)(=O)c2cccc(C(=O)NCCOCCOCCOCC(=O)N[C@H](C(=O)N4C[C@H](O)C[C@H]4C(=O)NCc4ccc(-c5scnc5C)cc4)C(C)(C)C)c2)n(C)c(=O)n3C)c1 [dTRIM24], the “increase in EYFP expression” value was over 100 fold.
